Record: PubChem BioAssay AID652272 (Drosophila RNAi Screening Center, 2013)
The screen tested about 21,000 reagents; this is a random part of those that have a named target and a result. Of all reagents, 503 (2.4%) got an active call. 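Raw plate light values, not normalised; calls rest on replicate z-scores that were not deposited; hits include reporter decreases as well as increases.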 Unmarked entries are inactive. The numbers tell different reagents against one gene apart. No sequences are given here. Not given: the amount of reagent, the time to read-out.

Assay: 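Finding fly genes that regulate Hedgehog signal transduction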 (primary screen)
Cells: Drosophila clone 8 (Cl8) cells
Reagent: long dsRNA against Drosophila genes
Detection: 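Firefly light from a Hedgehog-responsive ptc promoter reporter and Renilla reference light, both read on a plate reader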
Direction: firefly Hh reporter signal: higher = more ptc reporter light; Renilla reference signal: higher = more Renilla control light
Hit rule: 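Called a hit if the two-replicate mean z-score lies below -2 or above +3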
Calls: active = hit: reporter lowered or raised; inactive = not a hit

RpS30 — firefly Hh reporter signal, replicate 1: 2.88e5 (active); firefly Hh reporter signal, replicate 2: 30432; Renilla reference signal, replicate 1: 20567; Renilla reference signal, replicate 2: 1330
CG2006 — firefly Hh reporter signal, replicate 1: 1.49e5; firefly Hh reporter signal, replicate 2: 98715; Renilla reference signal, replicate 1: 3771; Renilla reference signal, replicate 2: 2832
RhoGEF64C #1 — firefly Hh reporter signal, replicate 1: 1.23e5; firefly Hh reporter signal, replicate 2: 61526; Renilla reference signal, replicate 1: 4647; Renilla reference signal, replicate 2: 2530
RhoGEF64C #2 — firefly Hh reporter signal, replicate 1: 86753; firefly Hh reporter signal, replicate 2: 50871; Renilla reference signal, replicate 1: 6950; Renilla reference signal, replicate 2: 2953
CG12010 — firefly Hh reporter signal, replicate 1: 50329; firefly Hh reporter signal, replicate 2: 52882; Renilla reference signal, replicate 1: 1564; Renilla reference signal, replicate 2: 3987
RhoGAP54D — firefly Hh reporter signal, replicate 1: 53717; firefly Hh reporter signal, replicate 2: 37073; Renilla reference signal, replicate 1: 1492; Renilla reference signal, replicate 2: 2631
Mpv17 — firefly Hh reporter signal, replicate 1: 73056; firefly Hh reporter signal, replicate 2: 2.08e5; Renilla reference signal, replicate 1: 2346; Renilla reference signal, replicate 2: 8432
Mgtor — firefly Hh reporter signal, replicate 1: 73660; firefly Hh reporter signal, replicate 2: 31763; Renilla reference signal, replicate 1: 3568; Renilla reference signal, replicate 2: 1577
peg — firefly Hh reporter signal, replicate 1: 8.02e5; firefly Hh reporter signal, replicate 2: 1.19e5; Renilla reference signal, replicate 1: 32006; Renilla reference signal, replicate 2: 2722
Afg3l2 — firefly Hh reporter signal, replicate 1: 83277; firefly Hh reporter signal, replicate 2: 71744; Renilla reference signal, replicate 1: 3095; Renilla reference signal, replicate 2: 2698
CG9922 — firefly Hh reporter signal, replicate 1: 1.14e5; firefly Hh reporter signal, replicate 2: 1.44e5; Renilla reference signal, replicate 1: 3069; Renilla reference signal, replicate 2: 3405
ver — firefly Hh reporter signal, replicate 1: 30809; firefly Hh reporter signal, replicate 2: 62453; firefly Hh reporter signal, replicate 3: 87804; Renilla reference signal, replicate 1: 6813; Renilla reference signal, replicate 2: 5883

Active calls, among the entries above:
RpS30 — firefly Hh reporter signal, replicate 1: 2.88e5 (active); firefly Hh reporter signal, replicate 2: 30432; Renilla reference signal, replicate 1: 20567; Renilla reference signal, replicate 2: 1330

The list goes on.
CG5877 — firefly Hh reporter signal, replicate 1: 1.30e5; firefly Hh reporter signal, replicate 2: 96311; Renilla reference signal, replicate 1: 3280; Renilla reference signal, replicate 2: 2257
CG42697 — firefly Hh reporter signal, replicate 1: 1.38e5; firefly Hh reporter signal, replicate 2: 1.73e5; Renilla reference signal, replicate 1: 4048; Renilla reference signal, replicate 2: 7760
Tre1 — firefly Hh reporter signal, replicate 1: 90480; firefly Hh reporter signal, replicate 2: 47200; Renilla reference signal, replicate 1: 6097; Renilla reference signal, replicate 2: 1978
dac — firefly Hh reporter signal, replicate 1: 1.33e5; firefly Hh reporter signal, replicate 2: 64486; Renilla reference signal, replicate 1: 2953; Renilla reference signal, replicate 2: 2723
CG5386 — firefly Hh reporter signal, replicate 1: 3.73e5; firefly Hh reporter signal, replicate 2: 1.97e5; Renilla reference signal, replicate 1: 16568; Renilla reference signal, replicate 2: 4939
CG8236 — firefly Hh reporter signal, replicate 1: 1.12e5; firefly Hh reporter signal, replicate 2: 1.25e5; Renilla reference signal, replicate 1: 3283; Renilla reference signal, replicate 2: 6450
CG43088 — firefly Hh reporter signal, replicate 1: 7.04e5; firefly Hh reporter signal, replicate 2: 3.65e5; Renilla reference signal, replicate 1: 41624; Renilla reference signal, replicate 2: 8544
CG31019 — firefly Hh reporter signal, replicate 1: 4.15e5; firefly Hh reporter signal, replicate 2: 1.99e5; Renilla reference signal, replicate 1: 22352; Renilla reference signal, replicate 2: 3729
Prx6c — firefly Hh reporter signal, replicate 1: 1.17e5; firefly Hh reporter signal, replicate 2: 54541; Renilla reference signal, replicate 1: 3276; Renilla reference signal, replicate 2: 5120
